From US20100104568A1 (published 2010)
Results are given in words; binding and its absence hold for the method and conditions named. Some entries that bind do so weakly or less than the wild type.

Target: cynomolgus RANK-L, full length, membrane-bound, expressed on HEK293T cells (cynomolgus monkey)
Assay: FACS

Row | Binder | binding
1 | RANKL9 (VHH) VHH: EVQLVESGGGLVQAGGSLRLTCAASGRTFRSYAMGWFRQAPGKEREFVAAINYSGGSTNYADSVKGRFTISRDNAKNTLYLQMNSLEPEDTAVYYCAAGSGYASLSYYSTERAYTYWGQGTQVTVSS | binds
2 | RANKL6 (VHH) VHH: EVQLVESGGGLMQTGGSLRLSCAASGVTYSYYTASWFRQAPGKEREFVAAISPSGNTYYADSVKGRFTISRDNGKHTMYLQMNSLNPEDTAVYFCAIRATDSIYYASSYRHWGQGTQVTVSS | binds

Next, values leading:

Row | binding | Binder
3 | binds | RANKL15 (VHH) VHH: EVQLVESGGGLVQAGGSLRLSCAAAGGTFRNYVMGWFRQAPGKEREFVTAISTGGSWTGYVDSVKDRFTISRDNTKNTVYLQMASLKPEDTAVYYCAATTPATTYLPRSERQYDYWGQGTQVTVSS
4 | binds | RANKL18 (VHH) VHH: EVQLVESGGGLVQAGGSLRLSCAASGRTFSRSAMGWFRQAPGKEREFVGFITGSGGTTYYGESVKGRFTISRDNAQNPVYLQMNSLKPEDTAVYYCGVYRRTYISSTYSESSEYDYWGQGTQVTVSS
